Experimental data taken from patent US8236848B2, “Diindolylmethane for the treatment of HPV infection” (BioResponse, L.L.C., priority 2001, dated 2012).
At least one compound was matched to its structure with a doubt left.

Assays:
[1] = test system: plantar warts (verruca vulgaris); assay: Combined oral and transdermal Diindolylmethane for plantar warts (case two); type: in vivo, human; details: patient two
[2] = test system: verrucae involving the plantar skin; assay: Oral Diindolylmethane for childhood warts (case four); type: in vivo, human; details: child four; 75 mg/day (3 mg/kg/day) oral, after 5 weeks; no pain or scarring
From the text: The usefulness of oral forms of Diindolylmethane in treating verrucous disease of childhood is illustrated by the case of C. B. The subject is a child with classic verrucae involving the plantar skin of one foot. The process began as a single wart, which was frozen with liquid nitrogen by a pediatrician. […] Within 2 months, however, a new wart recurred at the sight of the original scar. Upon recurrence the primary lesion measured approximately 0.75 cm in diameter but was now circled by a number of smaller satellite lesions surrounding the recurrent primary wart.
Treatment was initiated with 75 mg/day of Diindolylmethane in an absorbable formulation (300 mg total formula weight). With the patient weighing 25 kg, this provided 3 mg/kg/day of Diindolylmethane and 12 mg/kg/day of the formulation. […] There was no pain or scarring associated with the gradual resolution.

## c1ccc2c(Cc3c[nH]c4ccccc34)c[nH]c2c1 [Diindolylmethane]
[1]; oral 150 mg per day plus 1% cream twice daily, first month
  Response of plantar warts: Little response
[1]; oral 187.5 mg per day plus 1% cream, with thyroid replacement (Synthroid 25 ug per day), six to eight weeks after dose increase, no scarring
  Response of plantar warts: completely gone
[2]
  Response of plantar warty lesions: fully resolved
